{
  "source": "paper PMC4721948",
  "key": {"[1]": {"biological_target": "T1, APPL1 (adaptor protein containing pleckstrin homology domain, phosphotyrosine binding domain and leucine zipper motif), wild type (UniProt Q9UKG1)", "T1 sequence": "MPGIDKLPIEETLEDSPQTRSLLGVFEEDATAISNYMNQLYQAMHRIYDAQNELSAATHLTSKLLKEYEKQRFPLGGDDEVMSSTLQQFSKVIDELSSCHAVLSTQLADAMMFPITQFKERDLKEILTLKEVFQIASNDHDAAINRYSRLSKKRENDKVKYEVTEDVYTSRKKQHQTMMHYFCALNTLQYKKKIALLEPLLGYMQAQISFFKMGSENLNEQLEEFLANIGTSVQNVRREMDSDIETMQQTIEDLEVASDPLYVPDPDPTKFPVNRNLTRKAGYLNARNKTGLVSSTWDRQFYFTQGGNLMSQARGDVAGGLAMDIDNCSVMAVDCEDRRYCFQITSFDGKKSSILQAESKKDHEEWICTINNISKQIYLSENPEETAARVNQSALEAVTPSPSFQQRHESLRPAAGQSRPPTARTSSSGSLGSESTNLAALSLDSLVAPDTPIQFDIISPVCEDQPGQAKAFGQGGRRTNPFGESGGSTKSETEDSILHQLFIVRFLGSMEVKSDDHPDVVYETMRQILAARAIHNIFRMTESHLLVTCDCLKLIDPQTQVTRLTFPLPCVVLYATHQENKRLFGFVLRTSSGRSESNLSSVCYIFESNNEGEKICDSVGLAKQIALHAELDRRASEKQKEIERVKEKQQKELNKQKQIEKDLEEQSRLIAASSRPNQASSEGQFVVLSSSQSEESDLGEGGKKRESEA", "test": "co-IP; lysates of transfected HEK293 cells overexpressing APP (APPwt, APPmv or APP_(AENATA)) and APPL1 (wt or ΔPTB); IP with antibodies against APPL1 or against APP (C1/6.1 or 6E10), immunoblot; 10% of total lysate as input"}, "[2]": {"biological_target": "β-cleaved carboxy-terminal fragment of APP (βCTF) (human)", "test": "co-IP; lysates of transfected HEK293 cells overexpressing APP (APPwt, APPmv or APP_(AENATA)) and APPL1 (wt or ΔPTB); IP with antibodies against APPL1 or against APP (C1/6.1 or 6E10), immunoblot; 10% of total lysate as input"}, "[3]": {"biological_target": "β-cleaved carboxy-terminal fragment of APP (βCTF), in N2a cells overexpressing APPwt (human)", "test": "co-IP; lysates of N2a cells overexpressing APPwt and APPL1wt, treated with MiTMAB (dynamin I and II inhibitor) to block endocytosis; IP with C1/6.1 or APPL1 antibody, immunoblot"}, "[4]": {"biological_target": "β-cleaved carboxy-terminal fragment of APP (βCTF), in N2a cells overexpressing APPwt (human)", "test": "co-IP; lysates of N2a cells overexpressing APPwt and APPL1wt, treated with promyristic acid (inactive form of MiTMAB, negative control); IP with C1/6.1 or APPL1 antibody, immunoblot"}, "[5]": {"biological_target": "β-cleaved carboxy-terminal fragment of APP (βCTF), in N2a cells overexpressing APPwt (human)", "test": "condition: only cells treated with MiTMAB (dynamin inhibitor, blocks endocytosis); co-IP; lysates of N2a cells overexpressing APPwt and APPL1wt, treated with MiTMAB (dynamin I and II inhibitor) to block endocytosis; IP with C1/6.1 or APPL1 antibody, immunoblot"}},
  "note": "Results are given in words; binding and its absence hold for the method and conditions named. Binding seen in cells or lysates may run through a third protein. For some assays here: A result given as binding can be weak or reduced; the word gives no strength.",
  "data": [
    {"molecule": "α-cleaved carboxy-terminal fragment of APP (αCTF) (human) (domain or fragment)", "values": [
      {"measurement": "binding", "setting": "[1]", "result": "no binding"}
    ]},
    {"molecule": "APPL1 (adaptor protein containing pleckstrin homology domain, phosphotyrosine binding domain and leucine zipper motif), wild type (protein, UniProt Q9UKG1 1-709) MPGIDKLPIEETLEDSPQTRSLLGVFEEDATAISNYMNQLYQAMHRIYDAQNELSAATHLTSKLLKEYEKQRFPLGGDDEVMSSTLQQFSKVIDELSSCHAVLSTQLADAMMFPITQFKERDLKEILTLKEVFQIASNDHDAAINRYSRLSKKRENDKVKYEVTEDVYTSRKKQHQTMMHYFCALNTLQYKKKIALLEPLLGYMQAQISFFKMGSENLNEQLEEFLANIGTSVQNVRREMDSDIETMQQTIEDLEVASDPLYVPDPDPTKFPVNRNLTRKAGYLNARNKTGLVSSTWDRQFYFTQGGNLMSQARGDVAGGLAMDIDNCSVMAVDCEDRRYCFQITSFDGKKSSILQAESKKDHEEWICTINNISKQIYLSENPEETAARVNQSALEAVTPSPSFQQRHESLRPAAGQSRPPTARTSSSGSLGSESTNLAALSLDSLVAPDTPIQFDIISPVCEDQPGQAKAFGQGGRRTNPFGESGGSTKSETEDSILHQLFIVRFLGSMEVKSDDHPDVVYETMRQILAARAIHNIFRMTESHLLVTCDCLKLIDPQTQVTRLTFPLPCVVLYATHQENKRLFGFVLRTSSGRSESNLSSVCYIFESNNEGEKICDSVGLAKQIALHAELDRRASEKQKEIERVKEKQQKELNKQKQIEKDLEEQSRLIAASSRPNQASSEGQFVVLSSSQSEESDLGEGGKKRESEA", "values": [
      {"measurement": "binding", "setting": "[2]", "result": "binds"}
    ]},
    {"molecule": "APPL1, wild type, overexpressed in N2a cells (protein, UniProt Q9UKG1 1-709) MPGIDKLPIEETLEDSPQTRSLLGVFEEDATAISNYMNQLYQAMHRIYDAQNELSAATHLTSKLLKEYEKQRFPLGGDDEVMSSTLQQFSKVIDELSSCHAVLSTQLADAMMFPITQFKERDLKEILTLKEVFQIASNDHDAAINRYSRLSKKRENDKVKYEVTEDVYTSRKKQHQTMMHYFCALNTLQYKKKIALLEPLLGYMQAQISFFKMGSENLNEQLEEFLANIGTSVQNVRREMDSDIETMQQTIEDLEVASDPLYVPDPDPTKFPVNRNLTRKAGYLNARNKTGLVSSTWDRQFYFTQGGNLMSQARGDVAGGLAMDIDNCSVMAVDCEDRRYCFQITSFDGKKSSILQAESKKDHEEWICTINNISKQIYLSENPEETAARVNQSALEAVTPSPSFQQRHESLRPAAGQSRPPTARTSSSGSLGSESTNLAALSLDSLVAPDTPIQFDIISPVCEDQPGQAKAFGQGGRRTNPFGESGGSTKSETEDSILHQLFIVRFLGSMEVKSDDHPDVVYETMRQILAARAIHNIFRMTESHLLVTCDCLKLIDPQTQVTRLTFPLPCVVLYATHQENKRLFGFVLRTSSGRSESNLSSVCYIFESNNEGEKICDSVGLAKQIALHAELDRRASEKQKEIERVKEKQQKELNKQKQIEKDLEEQSRLIAASSRPNQASSEGQFVVLSSSQSEESDLGEGGKKRESEA", "values": [
      {"measurement": "binding", "setting": "[3]", "result": "binds"},
      {"measurement": "binding", "setting": "[4]", "result": "binds"},
      {"measurement": "binding", "setting": "[5]", "result": "no binding"}
    ]}
  ]
}
